Paper PMC9509598
No constants are given. Whether binding was seen depends on the method and setting. For part of these data: Binding seen in cells or lysates may run through a third protein. Some binding calls cover weakened binding; strength is not graded here. For part of these data: Where a sequence is shown, tags or fusion partners need not be part of it.

Chains of the proteins cited; added tags and fusions are not shown. Lines headed by an entry give the natural chain unless they say otherwise; changes in a name come on top. Residues count along the entry.
UniProt Q6ZW49: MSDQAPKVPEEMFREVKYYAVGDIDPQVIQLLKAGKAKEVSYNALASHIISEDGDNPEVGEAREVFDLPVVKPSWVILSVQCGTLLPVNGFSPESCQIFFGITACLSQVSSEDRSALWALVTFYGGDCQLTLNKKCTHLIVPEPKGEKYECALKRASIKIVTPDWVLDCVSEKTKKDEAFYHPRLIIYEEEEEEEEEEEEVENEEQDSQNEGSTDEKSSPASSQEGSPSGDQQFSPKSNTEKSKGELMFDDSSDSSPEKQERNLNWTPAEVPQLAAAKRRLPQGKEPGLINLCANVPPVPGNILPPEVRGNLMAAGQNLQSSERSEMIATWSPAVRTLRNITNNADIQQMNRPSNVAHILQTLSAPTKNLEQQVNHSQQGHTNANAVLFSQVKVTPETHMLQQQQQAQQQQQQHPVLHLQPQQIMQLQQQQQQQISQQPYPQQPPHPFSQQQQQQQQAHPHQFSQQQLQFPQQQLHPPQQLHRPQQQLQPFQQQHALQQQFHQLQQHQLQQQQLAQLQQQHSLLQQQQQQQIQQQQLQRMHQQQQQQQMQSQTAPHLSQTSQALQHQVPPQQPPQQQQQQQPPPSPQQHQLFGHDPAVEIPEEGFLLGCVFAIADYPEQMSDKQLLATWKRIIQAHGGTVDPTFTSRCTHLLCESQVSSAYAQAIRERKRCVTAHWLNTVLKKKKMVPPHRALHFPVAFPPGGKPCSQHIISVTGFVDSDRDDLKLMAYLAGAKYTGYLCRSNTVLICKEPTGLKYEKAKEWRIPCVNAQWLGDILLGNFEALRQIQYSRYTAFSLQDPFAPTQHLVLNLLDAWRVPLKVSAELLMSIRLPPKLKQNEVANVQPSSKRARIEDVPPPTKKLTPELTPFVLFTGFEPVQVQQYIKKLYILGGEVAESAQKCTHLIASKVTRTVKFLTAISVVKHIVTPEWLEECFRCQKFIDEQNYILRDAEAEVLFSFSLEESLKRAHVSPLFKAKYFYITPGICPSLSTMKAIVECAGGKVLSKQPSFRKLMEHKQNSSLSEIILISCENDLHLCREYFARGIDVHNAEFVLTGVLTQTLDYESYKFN
Myc-PTIP-NM (codon 1–796): residues 1-796 of Q6ZW49
Myc-PTIP-MC (codon 391–1069): residues 391-1069 of Q6ZW49

T1: Mps1 N-terminus (codon 1–517) (UniProt P33981)
T1 sequence: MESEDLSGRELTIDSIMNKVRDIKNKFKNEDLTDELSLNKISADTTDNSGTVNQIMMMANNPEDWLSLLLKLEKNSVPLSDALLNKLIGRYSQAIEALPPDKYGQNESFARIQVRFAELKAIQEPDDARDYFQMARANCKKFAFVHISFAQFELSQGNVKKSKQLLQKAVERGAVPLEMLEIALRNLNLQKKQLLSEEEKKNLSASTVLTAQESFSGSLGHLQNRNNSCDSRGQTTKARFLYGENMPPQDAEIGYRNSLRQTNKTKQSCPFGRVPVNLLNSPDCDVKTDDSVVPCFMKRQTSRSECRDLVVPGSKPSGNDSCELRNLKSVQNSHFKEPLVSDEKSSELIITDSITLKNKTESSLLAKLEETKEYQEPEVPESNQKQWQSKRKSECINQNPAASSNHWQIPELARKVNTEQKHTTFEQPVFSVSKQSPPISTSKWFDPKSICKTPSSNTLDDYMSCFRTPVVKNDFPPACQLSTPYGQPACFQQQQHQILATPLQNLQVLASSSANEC


Experiments:
[1] = target: T1, Mps1 N-terminus (codon 1–517); experiment: two-hybrid; two-hybrid screen of Mps1 N-terminus (codon 1-517); not published
[2] = target: Myc-PTIP-MC (codon 391–1069) (UniProt Q6ZW49); experiment: co-IP; HeLa Tet-on cells cotransfected with HA-Mps1 and Myc-PTIP truncations for 24 h, arrested in M phase with nocodazole; lysis buffer 25 mM Tris-HCl pH 7.4, 150 mM NaCl, 1% NP-40, 1 mM EDTA, 5% glycerol; anti-c-Myc magnetic beads, 4 °C, 2 h; Western blot
[3] = target: Myc-PTIP-NM (codon 1–796) (UniProt Q6ZW49); experiment: as above

binding [1] | binding [2] | binding [3] | Molecule
binds |  |  | truncated PTIP (codon 423–1069) (from UniProt Q6ZW49 423-1069) (domain or fragment)
 | binds | binds | HA-Mps1 (protein, UniProt P33981 1-857) MESEDLSGRELTIDSIMNKVRDIKNKFKNEDLTDELSLNKISADTTDNSGTVNQIMMMANNPEDWLSLLLKLEKNSVPLSDALLNKLIGRYSQAIEALPPDKYGQNESFARIQVRFAELKAIQEPDDARDYFQMARANCKKFAFVHISFAQFELSQGNVKKSKQLLQKAVERGAVPLEMLEIALRNLNLQKKQLLSEEEKKNLSASTVLTAQESFSGSLGHLQNRNNSCDSRGQTTKARFLYGENMPPQDAEIGYRNSLRQTNKTKQSCPFGRVPVNLLNSPDCDVKTDDSVVPCFMKRQTSRSECRDLVVPGSKPSGNDSCELRNLKSVQNSHFKEPLVSDEKSSELIITDSITLKNKTESSLLAKLEETKEYQEPEVPESNQKQWQSKRKSECINQNPAASSNHWQIPELARKVNTEQKHTTFEQPVFSVSKQSPPISTSKWFDPKSICKTPSSNTLDDYMSCFRTPVVKNDFPPACQLSTPYGQPACFQQQQHQILATPLQNLQVLASSSANECISVKGRIYSILKQIGSGGSSKVFQVLNEKKQIYAIKYVNLEEADNQTLDSYRNEIAYLNKLQQHSDKIIRLYDYEITDQYIYMVMECGNIDLNSWLKKKKSIDPWERKSYWKNMLEAVHTIHQHGIVHSDLKPANFLIVDGMLKLIDFGIANQMQPDTTSVVKDSQVGTVNYMPPEAIKDMSSSRENGKSKSKISPKSDVWSLGCILYYMTYGKTPFQQIINQISKLHAIIDPNHEIEFPDIPEKDLQDVLKCCLKRDPKQRISIPELLAHPYVQIQTHPVNQMAKGTTEEMKYVLGQLVGLNSPNSILKAAKTLYEHYSGGESHNSSSSKTFEKKRGKK
